{"source": "paper PMC11589101", "about": "“Profiling the endocrine-disrupting properties of triazines, triazoles, and short-chain PFAS” (Toxicological Sciences, 2024)", "note": "Some entries repeat one wording, which the source may state once for all of them."}
{"test_system": "ER, AR, TR, TTR binding, H295R", "assay": "In vitro hazard profiling over all readouts (ER, AR, TR, TTR, H295R)", "conditions": "cutoff values of Table 2"}
{"compound": "c1nc[nH]n1", "note": "[1,2,4-Triazole]", "in vitro hazard profile (response category over all readouts)": "no response in any of the assays"}
{"compound": "CCNc1nc(NC(C)C)nc(SC)n1", "note": "[Ametryn]", "in vitro hazard profile (response category over all readouts)": "strong response in at least 2 readouts"}
{"compound": "CC1COC(Cn2cncn2)(c2ccc(Oc3ccc(Cl)cc3)cc2Cl)O1", "note": "(stereo not drawn) [Difenoconazole]", "in vitro hazard profile (response category over all readouts)": "strong response in at least 2 readouts"}
{"compound": "O=C(O)Cn1cncn1", "note": "[Triazole acetic acid]", "in vitro hazard profile (response category over all readouts)": "no response in any of the assays"}
{"compound": "N#CC(CCc1ccc(Cl)cc1)(Cn1cncn1)c1ccccc1", "note": "(stereo not drawn) [Fenbuconazole]", "in vitro hazard profile (response category over all readouts)": "strong response in at least 2 readouts"}
{"compound": "FC(F)C(F)(F)OCC(Cn1cncn1)c1ccc(Cl)cc1Cl", "note": "(stereo not drawn) [Tetraconazole]", "in vitro hazard profile (response category over all readouts)": "strong response in at least 2 readouts"}
{"compound": "CC(C)(C)C(O)(CCc1ccc(Cl)cc1)Cn1cncn1", "note": "(stereo not drawn) [Tebuconazole]", "in vitro hazard profile (response category over all readouts)": "strong response in at least 2 readouts"}
{"compound": "CC(C)(C)C(O)C(Oc1ccc(-c2ccccc2)cc1)n1cncn1", "note": "(stereo not drawn) [Bitertanol]", "in vitro hazard profile (response category over all readouts)": "strong response in at least 2 readouts"}
{"compound": "NC(Cn1cncn1)C(=O)O", "note": "(stereo not drawn) [Triazole alanine]", "in vitro hazard profile (response category over all readouts)": "no response in any of the assays"}
